{
  "sequences": {"note": "The chains behind the UniProt entries cited, without tags or fusion partners. Residues count along the entry.", "UniProt P11802, whole entry": "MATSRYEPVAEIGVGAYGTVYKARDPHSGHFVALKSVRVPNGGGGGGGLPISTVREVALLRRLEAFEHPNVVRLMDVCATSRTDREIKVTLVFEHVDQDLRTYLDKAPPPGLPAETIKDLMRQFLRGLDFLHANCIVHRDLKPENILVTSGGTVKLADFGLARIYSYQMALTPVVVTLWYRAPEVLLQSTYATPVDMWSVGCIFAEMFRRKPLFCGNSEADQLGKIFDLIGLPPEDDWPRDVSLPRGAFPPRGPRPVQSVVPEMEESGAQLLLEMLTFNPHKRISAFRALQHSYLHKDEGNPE", "UniProt P30281, 1-264 partner limits assumed": "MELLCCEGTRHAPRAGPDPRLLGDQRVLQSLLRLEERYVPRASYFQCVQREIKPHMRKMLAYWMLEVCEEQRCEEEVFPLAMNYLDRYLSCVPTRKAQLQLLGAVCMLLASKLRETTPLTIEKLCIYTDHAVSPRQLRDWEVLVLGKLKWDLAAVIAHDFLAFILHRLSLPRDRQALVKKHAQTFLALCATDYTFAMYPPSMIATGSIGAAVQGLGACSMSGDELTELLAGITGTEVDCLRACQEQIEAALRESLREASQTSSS"},
  "source": "patent US20050101595A1",
  "about": "“N-containing cycloalkyl-substituted amino-thiazole derivatives and pharmaceutical compositions for inhibiting cell proliferation and methods for their use” (PFIZER INC., priority 2003, published 2005)",
  "target": "human CDK4 and genetically truncated (1-264) cyclin D3 (Homo sapiens, UniProt P11802)",
  "assay": "Inhibition of CDK4/Cyclin D Retinoblastoma Kinase Activity",
  "conditions": "read-out: CDK4 Ki; apparent Ki, CDK4/truncated cyclin D3, Rb fragment substrate, 25 μM ATP",
  "note": "Structures were worked out from names or drawings and are uncertain.",
  "data": [
    {"smiles": "CN(C)CCNc1ccc(S(=O)(=O)N2CCC(Nc3nc(N)c(C(=O)c4c(F)cccc4F)s3)CC2)cn1", "values": [
      {"measurement": "Ki", "result": 0.51, "unit": "nM"}
    ]}
  ]
}
